Library screen at single concentrations

A: 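Whole-cell growth test on Mycobacterium tuberculosis, read after 3 days in glucose-containing 7H9 medium; the read-out is not stated. Compounds at 50 µM. Direction is inferred from retests: higher values go with more growth inhibition. Of about 69,000 compounds tested this way, about 760 (1.1%) reached 50% or more in at least one test.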
B: 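Growth of Mycobacterium tuberculosis over 4 days (cholesterol / DPPC medium with tyloxapol); the read-out is not stated. Tested at 50 µM. Higher reads as more growth inhibition (inferred: compounds with an IC50 in retests scored well above the rest). About 69,000 compounds were tested under these conditions; 0.54% (about 370) showed 50% or more at least once.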

Each number is a percent effect as filed. The record does not define 0% and 100%; most values in the screen are far below 50% and negative numbers occur (in some assays of this library far below -100). Compounds were drawn at random from those tested, without regard to their results. Two or more numbers in one place are separate tests of the same structure; such repeats can differ widely.

compound,A,B
OCC1(O)CCN(Cc2noc(-c3ccccc3)n2)CC1,-2.333% & -12.13%,-17.08%
[H][C@]12CCN(C(=O)NC3CCCC3)CC[C@@]1([H])S(=O)(=O)N(C)C2,-16.29%,-2.48%
CCS(=O)(=O)CCNC(=O)NC(C)c1cc(C)sc1C (centres undefined),-2.979%,4.302%
COCCCN1CCCCC12CC(=O)N(Cc1ccccn1)C2 (centres undefined),-1.606% & 6.855%,6.611%
CC[C@@]1(O)CCN(C(=O)c2ccc(SC)cc2)C[C@H]1O,18.41% & -1.323%,4.369%
O=C(O)C(F)(F)F.[H][C@@]12COC[C@]1([H])[C@H](OCc1csc(C)n1)CN2Cc1ccc(OC)cc1,-11.18%,-16.32%
O=C(NCCNS(=O)(=O)C1CCCCC1)c1ccccc1,15.76%,-1.097%
Cc1nc(N(C)C)nc(C)c1NS(=O)(=O)c1ccc(F)cc1F,4.252% & -28.85%,10.58%
Cl.NC1(c2nc(C(F)(F)F)cc(=O)[nH]2)CCCC1,-0.4581% & -6.949%,-11.62%
CCN(CC)c1nc2sc(C(=O)NC(C)(C)C(=O)OC)cc2s1,2.633%,4.924%
NC(=O)C1(c2cnccn2)CCCN1Cc1cc2ccccc2o1 (centres undefined),0.9564%,-4.054%
Cc1ccccc1CC(=O)N1CCN(C2CCOC2=O)CC1 (centres undefined),-8.544%,2.953%
CNC(=O)C1CCN(c2ncc3c(n2)CCN3c2ccccc2)C1 (centres undefined),-40.76%,-6.074%
Cc1nc(C)n(CC2CN(Cc3nc4ccccc4n3C)CCO2)n1 (centres undefined),32.87%,1.41%
CC(O)C(=O)N1CCC(c2[nH]ncc2-c2ccccc2)CC1 (centres undefined),-7.047%,-6.863%
CC(C(=O)N(C)Cc1ccc(Br)o1)n1cncn1 (centres undefined),-10.31%,-14.86%
COc1cccc(CC(=O)N2CCC(c3ccn4nccc4n3)CC2)c1,7.352%,19.63% & 8.647%
Cc1cc(C)n(CC2CCCN2Cc2cccc(C#N)c2)n1 (centres undefined),-19.76%,-6.705%
CN(CCCOc1ccc(F)cc1)Cc1nc2c(cnn2C)c(=O)[nH]1,16.66%,-0.8327%
CC(C)c1nn(C)cc1CNCc1ccnc(N(C)C)c1.Cl,-26.36%,-1.254%
COCc1noc(C2(c3ccc(OC)cc3)CCOCC2)n1,-18.77%,29.4%
CCc1cnc(CN2CCCC2c2noc(C3CC3)n2)o1 (centres undefined),-5.583%,-19.92%
CCN(Cc1ccoc1)C(C(N)=O)c1ccc(C#N)cc1 (centres undefined),18.61%,-6.097%
CCCN(CCc1ccccc1)c1ncnc2oc(C)nc12,21.15%,-6.722% & -18.07%
O=C(NCCSC1CCCC1)c1c(F)cccc1F,22.46%,-1.587% & -3.981%
CSc1ccc(CNC(=O)NCC(O)c2cccc(F)c2)cc1 (centres undefined),-17.65%,-0.3457%
CN(Cc1cccnc1)C1CC2(CCN(Cc3ccccn3)CC2)C1.O=C(O)C(F)(F)F.O=C(O)C(F)(F)F.O=C(O)C(F)(F)F,-29%,-15.03% & -8.009%
COCCN1CC[C@@H](OC)[C@@H]1Cc1ccccc1.O=C(O)C(F)(F)F,4.57%,-9.57%
CCc1ncc(C(=O)N2CCC(Nc3ccc(C)nn3)CC2)s1,12.83%,24.77%
O=C(O)C(F)(F)F.O=C(O)C(F)(F)F.O=C(O)C(F)(F)F.O=C(c1ccncc1)N1CCN(Cc2cccnc2)c2ncccc2C1,9.163%,1.826%
Cn1nnc2c1C(COCC1CC1)CN(C(=O)C1=CCCC1)C2 (centres undefined),-19.45%,-22.54%
Cc1nc(CN(CCS(C)(=O)=O)C(C)(C)C)no1,-28.28%,-32.55%
Cc1nn(C)c(N2CCOCC2)c1CNCc1ccc(C(C)O)cc1 (centres undefined),2.225%,-0.7444%
COC1CCN(C(=O)C2CC(=O)N(c3ccccc3Br)C2)CC1 (centres undefined),31.22%,-10.52%
CCCNC(=O)c1sccc1N(C)S(=O)(=O)c1ccc(Cl)cc1,-8.355% & -32.33%,-13.61%
O=C(NC[C@@H]1CCCO1)c1cccnc1N1CCCC1c1ccccn1 (some centres undefined),-15.42%,-9.063%
Cc1cc(Oc2ccccc2)nc(C2CCCCN2)n1 (centres undefined),22.25%,-17.4%
c1cc(-c2nc3c(c(NCCc4c[nH]cn4)n2)CCNCC3)ccn1,7.548% & -7.123%,8.2% & -2.15%
CC(=O)N(Cc1ncc(C)o1)C1CCN(CCn2cccn2)C1 (centres undefined),-23.22%,-23.83%
Cn1cc(NC(=O)c2ccccn2)cc(Cl)c1=O,-14.28%,-8.821%
CCS(=O)(=O)N1CCC2(CC1)CCn1c(-c3cnn(C)c3)cnc12.O=C(O)C(F)(F)F,-3.799%,-12.6%
COc1ccc(CN(C(=O)C2CCCO2)c2ccncc2)cc1 (centres undefined),-11.46% & 5.672%,6.537%
Cc1nc(OCC(=O)N2CCCC2)cc(-n2cccn2)n1,7.847%,-18.56%
Cc1noc(C(C)C)c1C(=O)NCCCOC(C)C,24.16%,3.223%
CCCN(CC1CC1)S(=O)(=O)c1ccc(NC(C)=O)cc1,9.846% & 19.93%,2.458% & 4.907%
CCOc1ccccc1C(=O)Oc1cc(=O)n2cccc(C)c2n1,31.85%,-2.519%
COCC(C)NC(=O)CSc1ccc(F)c(Cl)c1 (centres undefined),-28.59%,-31.89%
COc1cccc2c1ccn2CCC(=O)N1CCCC(C(=O)O)C1 (centres undefined),-26.16% & -11.7%,-20.43%
Cc1ccc(C(=O)NC2CCN(Cc3noc(CC(C)C)n3)CC2)s1,-42.13%,-38.09%
Cc1occc1C(=O)N1CCC2(CC1)CN(Cc1nccs1)CCO2.O=C(O)C(F)(F)F,22.22% & -1.558%,2.939%
CN1C(=O)C(c2cccnc2)CC12CCN(C(=O)c1cccn1C)CC2 (centres undefined),11.67%,12.26%
[H][C@@]12CN(Cc3ccc4c(c3)OCO4)C[C@]1([H])OCC(=O)N2,4.181% & -5.582%,-24.86%
Cc1c(C2CC(=O)Nc3c2cnn3C(C)C)cnn1C (centres undefined),29.29%,13.78%
CN(C)[C@@H]1CN(C(=O)COc2cccc(F)c2)C[C@H]1O,22.13%,-9.834%
Cc1noc(C)c1CCC(=O)N1CCN(CCn2cncn2)CC1,-0.5829% & -34.95%,-24.24%
N#Cc1nccnc1N1CCC(COCc2ccccc2)C1 (centres undefined),40.28%,37.28%
CCNC(=O)Nc1ccc(N2CCC(OC)CC2)c(C(F)(F)F)c1,45.68%,13.31%
CC(C)c1nc(C2CCCN2C(=O)CN(C)Cc2ccccc2)no1 (centres undefined),21.8%,-4.905%
CN1CC(=O)N(c2ccccc2)CC12CCN(C(=O)c1cnccn1)C2.O=C(O)C(F)(F)F (centres undefined),-33.13%,-17.4%
CCOC(=O)C1CCN(Cc2c(O)ccc3oc4c(c23)CCCC4)CC1,-5.583%,22.64%
Cn1cnc2c1CCN(CC(O)c1ccc(S(C)(=O)=O)cc1)C2 (centres undefined),-31.18%,3.594%
c1ccc(CN(Cc2cccc3cnccc23)CC2CCCO2)nc1 (centres undefined),-9.122%,1.862%
O=C(O)C(F)(F)F.[H][C@]12CN(Cc3ccccc3OC)C[C@@]1([H])OCCN(C(C)=O)C2,29.11%,0.5739%
Cc1nc(NC(=O)C2CCCN(C(N)=O)C2)sc1-c1ccccc1 (centres undefined),13.98% & -0.5376%,4.326%
CN(C)c1ccc(CN2CCN(c3ccc(C#N)cc3)C(=O)C2)cn1,9.574% & -5.132%,3.471%
CNC(=O)c1ncn2c1CN(CCC(C)C)S(=O)(=O)c1ccccc1-2,-13.37%,-7.584%
Cc1nn(C)c(N2CCOCC2)c1CNC(C(N)=O)c1ccccc1 (centres undefined),23.64%,13.71%
Cc1nc(CN2Cc3cn(C)nc3C(COCC3CC3)C2)cs1 (centres undefined),-9.554%,-8.779%
COCCN1CCC(c2nc3cc(C)ccc3[nH]2)CC1,-4.967%,-6.415%
[H][C@]12CCC[C@@]1(COCc1cccnc1)CN(C(=O)c1ccc(C)s1)C2,-12.82%,-18.47%
[H][C@@]12CN(S(=O)(=O)c3ccccc3)C[C@]1([H])OCC(=O)N2Cc1ccccn1,8.747% & 0.3332%,2.833%
CS(=O)(=O)NCc1ccc2c(c1)CCC2,7.328%,14.62%
[H][C@@]12CCN(Cc3cnn(C)c3)C[C@@]1([H])O[C@H](c1nc(C)c(C)s1)C2,19.49% & 2.48%,3.861%
CC1CN(C(=O)CN(Cc2ccccc2Cl)C2CCCC2)CCO1 (centres undefined),2.414%,-6.413%
CCn1nc(C)cc1C(=O)N1C[C@@H](CN(C)C)[C@@H](CO)C1,-16.96%,3.752%

Repeated from the top, 7 entries:

compound	A	B
OCC1(O)CCN(Cc2noc(-c3ccccc3)n2)CC1	-2.333% & -12.13%	-17.08%
[H][C@]12CCN(C(=O)NC3CCCC3)CC[C@@]1([H])S(=O)(=O)N(C)C2	-16.29%	-2.48%
CCS(=O)(=O)CCNC(=O)NC(C)c1cc(C)sc1C (centres undefined)	-2.979%	4.302%
COCCCN1CCCCC12CC(=O)N(Cc1ccccn1)C2 (centres undefined)	-1.606% & 6.855%	6.611%
CC[C@@]1(O)CCN(C(=O)c2ccc(SC)cc2)C[C@H]1O	18.41% & -1.323%	4.369%
O=C(O)C(F)(F)F.[H][C@@]12COC[C@]1([H])[C@H](OCc1csc(C)n1)CN2Cc1ccc(OC)cc1	-11.18%	-16.32%
O=C(NCCNS(=O)(=O)C1CCCCC1)c1ccccc1	15.76%	-1.097%

The values are deposited in ChEMBL (CHEMBL3988442, “University of Dundee, Small-Polar-MMV Screening Library” (2021)).